Measured values taken from PMC5046110.

Tested on: MBP-GmDREBL (Glycine max)
Experiment: EMSA
Details: LightShift Chemiluminescent EMSA Kit (Thermo), manufacturer's instructions, pH and temperature not stated, recombinant protein, protein details: MBP (N-terminal, pMAL-c5x)

Sequence | binding result | binding result (100-fold unlabelled probe used as competitor in lane 3)
TTTGTATTAGTACTCTTATTGTTTTTATTGTGTTT (double strand) [WRI1 promoter mutant probe (CCGAC to TTATT)] | no binding | –
TTTGTATTAGTACTCCCGACGTTTTTATTGTGTTT (double strand) [WRI1 promoter DRE probe] | – | binds

For at least one entry, the source does not settle the construct or the ends of the probe. No signal at the amounts used counts as a negative.
